Measurements as given in PubChem BioAssay AID2685 (National Center for Advancing Translational Sciences (NCATS), 2010).
The whole screen tested about 320,000 compounds, of which about 2,100 (0.66%) were called active. The inconclusive results got no clear call from the source; some entries with a clear call stand among them for comparison. The call rests on the fitted dose curve; in most records, active means well fitted inhibition curve with a large enough effect in the signal ratio, with a control signal flat (not every such curve was filed as active); inconclusive means small, poorly fitted or top-dose-only effect, or effect the other way, or a change in a side signal; inactive means flat fitted curve, though single readings scatter; the % refers to the signal ratio. Potencies beside an inconclusive call are fits to weak or partial responses and may not hold up.

assay: qHTS Assay for Lipid Storage Modulators in Drosophila S3 Cells; details: BODIPY lipid droplet fluorescence, 18-24 h, cells fed with added oleic acid; lipid storage change, negative = inhibition: at 46.1 µM (top of the series) unless noted
How it was run: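 Drosophila S3 cells got compounds at several concentrations plus oleic acid (400 uM solution). Laser-scanning cytometry with 488 nm excitation read lipid droplets at 500-530 nm and cells at 575-640 nm. Percent activity was relative to 20 uM Triacsin C.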
On the % scale 0 is the no-effect control and ±100 the full control effect; potency means the concentration at half of the fitted maximal effect.

| Structure (SMILES) | lipid storage change, negative = inhibition | Potency |
| --- | --- | --- |
| COc1ccc2c(C)cc(C)nc2n1 | inconclusive: 7.51% | – |
| COc1ccc(C)cc1NC(=O)CN(C)C1CCCCC1 | – | inconclusive: 29.1 µM [activator, single point] |
| COCCn1nnnc1C(c1cccc(C#N)c1)N1CCCCCC1 (centres undefined) | inconclusive: -0.944% | – |
| CCn1c(CNC(=O)c2ccccc2F)nnc1SCC(=O)Nc1nncs1 | – | inconclusive: 4.11 µM [falling, full curve, poor fit] |
| CC(CC(=O)OCC(=O)Nc1ccc2[nH]c(=O)[nH]c2c1)c1ccccc1 (centres undefined) | inconclusive: -4.41% | – |
| COc1cccc2c(Nc3ccccc3C)cc(C)nc12 | inconclusive: -23.8% | – |
| Cc1ccc(-n2ncc3c2CC(C)(C)CC3NC(=O)CCn2cncn2)cc1 (centres undefined) | inactive | – |
| Cc1ccccc1NC(=O)CC1c2ccccc2CC(C)(C)N1C (centres undefined) | inconclusive: -24.1% | – |
| Oc1ccc(-c2[nH]ncc2-c2cnn(-c3ccccc3)c2)c(O)c1 | inconclusive: -15.7% | – |
| CCOc1ccc(N(CC(=O)Nc2cccc(F)c2)S(=O)(=O)c2c(C)noc2C)cc1 | inconclusive: -2.73% | – |
| Cc1c(NC(=O)CSc2ccc3ccccc3n2)c(=O)n(-c2ccccc2)n1C | inconclusive: 23.8% | – |
| Cc1ccc2occ(/C=N/NC(=O)c3ccccc3C)c(=O)c2c1 | inconclusive: -45.6% [at 0.00295 µM] | – |
| CN(c1ccc(Cl)cc1)c1cc(=O)n(C)c2ccccc12 | inconclusive: 47.4% | – |
| COc1ccc(S(=O)(=O)N2CCC(Nc3ccccc3Cl)CC2)cc1 | – | inconclusive: 0.092 µM [falling, full curve, poor fit] |
| Cc1ccc(Nc2nnc(SCC(=O)NCCN3C(=O)CSC3=O)s2)cc1C | – | inconclusive: 16.4 µM [falling, partial curve] |
| CCC(C)NC(=O)CC(c1ccccc1)c1cc(C)ccc1O (centres undefined) | – | inconclusive: 7.31 µM [falling, partial curve, poor fit] |
| O=C1CCN(CCc2ccccc2)CCN1[C@H](CSc1ccccc1)c1ccccc1 | inconclusive: -45.9% | – |
| CN(C)c1ccc(/C=N/NC(=O)c2ccnn2C)cc1 | inactive | – |
| Cc1ccc(S(=O)(=O)N2CCN(CC(=O)NC(C)c3ccccc3)CC2)cc1 (centres undefined) | inconclusive: 32.6% | – |
| Cc1nc2c(C(=O)Nc3ccc(N4CCCC(O)C4)cc3)snc2c(=O)[nH]1 (centres undefined) | – | inconclusive: 1.03 µM [falling, full curve, poor fit] |
| O=C(CSc1nc2ccccc2o1)N1c2ccccc2Sc2ccccc21 | – | inconclusive: 6.51 µM [activator, partial curve, poor fit] |
| O=C(CSc1nnnn1C1CCCCC1)NCCc1ccccc1 | inconclusive: -0.262% | – |
| Cc1ccc(C(=O)N/C(=C/c2ccc(N(C)C)cc2)C(=O)NCC2CCCO2)cc1 (centres undefined) | – | inconclusive: 20.6 µM [activator, single point] |
| CC1CCN(S(=O)(=O)c2ccc3nc(-c4ccccn4)cc(C(=O)NCCN(C)Cc4ccccc4)c3c2)CC1 | inconclusive: 40.5% | – |
| CC(=O)N1CCN(c2ccc(NC(=O)c3ccc(C)cc3)cc2)CC1 | inconclusive: -1.09% | – |

Some values from above.
lipid storage change, negative = inhibition, Cc1ccc(-n2ncc3c2CC(C)(C)CC3NC(=O)CCn2cncn2)cc1 (centres undefined) reads inactive
lipid storage change, negative = inhibition, Cc1ccc2occ(/C=N/NC(=O)c3ccccc3C)c(=O)c2c1 reads inconclusive: -45.6% [at 0.00295 µM]
lipid storage change, negative = inhibition, O=C(CSc1nnnn1C1CCCCC1)NCCc1ccccc1 reads inconclusive: -0.262%
Potency, CCC(C)NC(=O)CC(c1ccccc1)c1cc(C)ccc1O (centres undefined) reads inconclusive: 7.31 µM [falling, partial curve, poor fit]

The list continues:

| Structure (SMILES) | lipid storage change, negative = inhibition | Potency |
| --- | --- | --- |
| Cc1cc(NC(c2cccnc2)c2ccc3cccnc3c2O)no1 (centres undefined) | inconclusive: 1.49% | – |
| CC(=O)NC(CC(=O)OCC(=O)N1c2ccccc2NC(=O)C1(C)C)c1ccccc1 (centres undefined) | inconclusive: 55.4% | – |
| Nc1cnccc1C(=O)O | inconclusive: 6.91% | – |
| Cc1cccc(C(=O)NCC(=O)Nc2ccncc2)c1 | – | inconclusive: 1.3 µM [activator, full curve, poor fit] |
| COCCCNC(=O)c1c(N)n(/N=C/c2cccnc2)c2nc3ccccc3nc12 | – | inconclusive: 0.013 µM [activator, full curve, poor fit] |
| Cc1cc(C)n(C(=O)CCN2C(=O)c3ccccc3C2=O)n1 | inconclusive: 36.5% | – |
| CCCCn1c(SCc2cccnc2)nc2c1c(=O)n(C)c(=O)n2C | – | inconclusive: 1.03 µM [rising, partial curve] |
| COCCN(C(=O)/C=C/c1ccccc1)c1c(N)n(Cc2ccccc2)c(=O)[nH]c1=O | inconclusive: -9.75% | – |
| Cc1ccc(O)c(-c2cc(C(=O)Nc3c(C)n(C)n(-c4ccccc4)c3=O)[nH]n2)c1 | inconclusive: 21.4% | – |
| O=C(CSCc1ccc(Cl)cc1)NCCSCc1ccco1 | inconclusive: -9.44% | – |
| O=C(CSc1ccc2nnc(-c3cccnc3)n2n1)Nc1ccc(F)cc1F | – | inconclusive: 4.11 µM [falling, single point] |
| Cc1cc(NC(=O)CCC(=O)N(c2ccccc2)C(C(=O)NCC2CCCO2)c2cccnc2)no1 (centres undefined) | inconclusive: -23.6% | – |
| Cc1ccccc1N1CCN(Cc2ccc(Br)o2)CC1 | inconclusive: 58.1% | – |
| Cn1cc(CN2CCN(Cc3cccnc3)CC2)c(-c2ccc3c(c2)OCCO3)n1 | – | inconclusive: 18.4 µM [activator, single point] |
| O=C1c2ccccc2NC(c2ccccc2)N1c1ccc(O)cc1 (centres undefined) | inconclusive: -42.1% | – |
| CN1CCN(NC(=O)CSc2ccc(Cl)cc2Cl)CC1 | – | inconclusive: 0.291 µM [falling, full curve] |
| c1ccc(NC2=Nc3ccccc3CS2)cc1 | – | inconclusive: 29.1 µM [activator, single point] |
| CC1S/C(=C(\C#N)C(=O)NCc2ccco2)N(c2ccc(F)cc2)C1=O (centres undefined) | inconclusive: 54.5% | – |
| CC(Nc1ccccc1)c1cccnc1 (centres undefined) | inconclusive: 0.0843% | – |
| CC(=O)c1cccc(NC(=O)C2C3CCC(C3)C2C(=O)O)c1 (centres undefined) | – | inconclusive: 20.6 µM [activator, single point] |
| Cc1cccc(-c2ccc3ncnc(NCc4cccs4)c3c2)c1 | inconclusive: -69.9% | – |
| CCCn1nc(C(=O)Nc2nc(-c3ccccn3)cs2)c2ccccc2c1=O | inconclusive: -46.5% | – |
| CCOC(=O)c1nc(Nc2cccc(C)c2)c2ccccc2n1 | inconclusive: -37.3% | – |
| Cc1cc(NC2CCCCC2)nc(NCc2ccccc2)n1 | – | inconclusive: 20.6 µM [cytotoxic, single point] |
